No constants are given. Whether binding was seen depends on the method and setting. In cells and extracts the contact can be indirect. Some entries that bind do so weakly or less than the wild type. One block for each binder: values may come before it.
Assays:
[1] = target: T1, mitsugumin 53 (MG53), mouse, endogenous (mouse) (UniProt Q1XH17); experiment: co-immunoprecipitation from mouse gastrocnemius skeletal muscle lysate
T1 sequence (looked up): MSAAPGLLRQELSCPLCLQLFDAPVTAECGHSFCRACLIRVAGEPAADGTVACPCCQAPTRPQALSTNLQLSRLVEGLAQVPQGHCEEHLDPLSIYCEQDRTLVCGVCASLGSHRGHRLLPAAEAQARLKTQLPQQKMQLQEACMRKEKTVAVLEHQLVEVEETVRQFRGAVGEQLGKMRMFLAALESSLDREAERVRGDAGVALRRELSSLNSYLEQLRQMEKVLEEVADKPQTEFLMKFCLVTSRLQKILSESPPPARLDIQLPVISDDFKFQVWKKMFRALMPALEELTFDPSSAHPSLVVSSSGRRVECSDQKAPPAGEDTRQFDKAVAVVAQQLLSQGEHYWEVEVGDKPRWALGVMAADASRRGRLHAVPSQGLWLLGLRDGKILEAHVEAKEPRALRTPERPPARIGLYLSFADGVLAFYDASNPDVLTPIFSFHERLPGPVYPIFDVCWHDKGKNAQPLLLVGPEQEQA

[2] = target: T2, caveolin-3, mouse, endogenous (mouse) (UniProt P51637); experiment: co-immunoprecipitation from wt mouse heart lysate
T2 sequence (looked up): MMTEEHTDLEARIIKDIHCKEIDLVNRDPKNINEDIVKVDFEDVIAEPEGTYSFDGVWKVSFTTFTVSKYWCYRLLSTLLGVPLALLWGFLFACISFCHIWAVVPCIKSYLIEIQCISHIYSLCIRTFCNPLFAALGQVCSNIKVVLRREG

[3] = target: T2, caveolin-3, mouse, endogenous (mouse); experiment: co-immunoprecipitation and confocal co-staining, heart
[4] = target: T2, caveolin-3, mouse, endogenous (mouse); experiment: co-immunoprecipitation from wt mouse heart lysate (FIG. 13)

binding [1]: binds
B1: caveolin-3, mouse, endogenous (protein, UniProt P51637 1-151, looked up)
chain: T2 sequence (looked up)

binding [2]: binds
binding [3]: binds
binding [4]: binds
B2: mitsugumin 53 (MG53), mouse, endogenous (protein, UniProt Q1XH17 1-477, looked up)
chain: T1 sequence (looked up)

Reference: US20130123340A1
